# From patent publication US9445993B2, “Nanotechnology approach for inhalation therapies” (Rutgers, The State University of New Jersey, priority 2012, dated 2016)
# Columns and labels:
# [1] = system: VEGF, CCL12, MMP3 and HIF1A proteins; test: Immunohistochemistry of lung tissue sections; assay type: in vivo, mice
# [2] = system: 84 key genes involved in tissue remodeling during wound repair and development of fibrosis; HIF1A, VHL; test: Gene expression by QPCR (Mouse Fibrosis RT Profiler PCR Array) and RT-PCR of HIF1A, VHL; assay type: in vivo, mice
# [3] = after instillation of bleomycin
substance,measurement,setting,value
bleomycin,expression of HIF1A protein,[1]; after bleomycin instillation,upregulated
same,expression of chemokine CCL12 and matrix metalloproteinase MMP3 proteins,[1]; after bleomycin instillation,induced overexpression of both proteins
same,VEGF protein expression in lung tissues,[1]; [3],substantially decreased
same,expression of HIF1A and VHL genes,"[2]; RT-PCR, after instillation of bleomycin",overexpression of HIF1A and suppression of VHL genes
same,"expression of genes PLG, PLAU, MMPs, TIMP1, AGT, BMP7, CCL11, CCL12, IFNG, interleukins, IL13RA2, INHBE, TNF, FASL, ITGB8, TGIF1",[2]; after bleomycin instillation,substantially increased
same,"expression of ENG, TGFBR2 and SMAD6 genes",[2]; [3],significantly downregulated
same,"expression of genes encoding VEGF, ITGA1, CAV1 and signal transducer and activator of transcription 6 (STATE)",[2]; [3],decreased
same,number of studied genes upregulated by more than 5 times,"[2]; of 84 genes, after instillation of bleomycin 1.5 U/kg",24
same,number of genes downregulated more than 5-fold,"[2]; out of 84 genes, after instillation of bleomycin 1.5 U/kg",7
